# PubChem BioAssay AID1347421 (Sanford-Burnham Center for Chemical Genomics, 2020)
# The chains behind the UniProt entries cited, without tags or fusion partners. Where a name states a change or a piece, a line headed by the entry shows the natural chain unless it says otherwise.
# UniProt O00391: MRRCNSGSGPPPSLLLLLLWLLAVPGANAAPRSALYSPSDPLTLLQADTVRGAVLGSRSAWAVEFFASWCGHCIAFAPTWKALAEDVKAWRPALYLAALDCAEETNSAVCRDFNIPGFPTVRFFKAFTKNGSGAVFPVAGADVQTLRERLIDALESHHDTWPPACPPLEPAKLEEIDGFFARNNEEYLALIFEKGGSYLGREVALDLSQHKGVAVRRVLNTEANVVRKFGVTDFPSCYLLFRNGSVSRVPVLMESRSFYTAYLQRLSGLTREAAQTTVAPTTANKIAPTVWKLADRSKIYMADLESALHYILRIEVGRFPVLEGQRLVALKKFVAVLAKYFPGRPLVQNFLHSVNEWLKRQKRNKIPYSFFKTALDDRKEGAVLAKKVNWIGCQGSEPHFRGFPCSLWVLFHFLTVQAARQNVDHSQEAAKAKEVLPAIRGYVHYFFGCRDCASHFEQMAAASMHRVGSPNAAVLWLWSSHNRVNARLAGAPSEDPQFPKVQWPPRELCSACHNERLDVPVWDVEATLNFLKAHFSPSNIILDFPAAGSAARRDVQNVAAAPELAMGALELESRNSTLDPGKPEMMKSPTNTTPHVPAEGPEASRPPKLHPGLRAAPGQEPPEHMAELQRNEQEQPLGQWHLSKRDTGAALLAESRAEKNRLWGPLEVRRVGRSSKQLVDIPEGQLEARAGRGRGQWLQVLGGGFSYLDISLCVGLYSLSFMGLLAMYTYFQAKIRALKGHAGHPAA
# In all, about 1,500 compounds were measured (“activity”: median about 2, lowest 2% from about -18 on). The list shows a part of the results. The source made the active and inactive calls.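 How the source made its calls: active means inhibition of at least 40% at 10 µM; inconclusive means no clear call, values can overlap the other calls; inactive means the rest.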
# Target: Sulfhydryl oxidase 1 (Homo sapiens) (UniProt O00391)
# Experiment: QSOX1 enzyme inhibitors, confirmation, biochemical, ROS-Glo luminescence, single concentration (AID 1347421);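 further: 0% = DMSO wells with enzyme and 100% = wells lacking QSOX1 enzyme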
# Conditions: recombinant hQSOX1, RNase A substrate, ROS-Glo H2O2 luminescence; at 10 µM
row,SMILES,activity
1,COCC(=O)N1CCCC1c1ccc(C(=O)NCc2ccccc2Cl)s1 (centres undefined),inactive: -5.5%
2,COc1ccccc1C(=O)Nc1ccnn1C1CCN(CC2CCOC2)CC1 (centres undefined),0.9%
3,O=C(c1ccncc1)N(CC1CCN(C2Cc3ccccc3C2)CC1)CC1CCCO1 (centres undefined),1.5%
4,CC(C)(C)NC(=O)NC(=O)c1ccccc1,2.4%
5,COc1ccccc1/C=C/CN1CCNC(=O)C1CC(=O)NCCCn1cccn1 (centres undefined),2.9%
6,COCCNC(=O)CCC1CCN(C(=O)CCCCc2ccccc2)CC1,6.8%
7,CC(C)N1CC(C(=O)NC2CCCC2)CC1=O (centres undefined),6.2%
8,O=C(CCC1CCCN(CC2CC2)C1)N1CCN(Cc2ccccc2)CC1 (centres undefined),0.3%
9,CN(CC1CCCCO1)C(=O)c1cc(COc2cccc(F)c2)[nH]n1 (centres undefined),inactive: 0%
10,O=C(NCCCn1cccn1)c1cn(Cc2ccc(Cl)cc2)nn1,inactive: -4.9%
11,O=C(CN1CCCCC1)NC1CC(=O)N(Cc2ccccc2Cl)C1 (centres undefined),3.8%
12,CN(C(=O)c1ccc2c(c1)OCCO2)C1CCCN(C2Cc3ccccc3C2)C1 (centres undefined),4%
13,Cc1nc(CNC(=O)c2ccc3oc(C(C)C)nc3c2)cs1,8%
14,COC(=O)c1cc(C(=O)OC)n(Cc2ccc(F)cc2)n1,inactive: -4.7%
15,Fc1ccc(CC2CN(C3CCOCC3)CCO2)cc1 (centres undefined),0.2%
16,Cc1cccc(N2CCN(CC(=O)Nc3ccc(S(N)(=O)=O)cc3)CC2)c1C,inactive: -11.2%
17,CCN(CC)C(=O)CCc1nnc(-c2ccccc2)o1,inactive: -5.5%
18,CCCS(=O)(=O)N1CCC(CCOc2ccccc2)(C(=O)OCC)CC1,3.3%
19,Cc1nc2nc(CSc3nc4ccccc4s3)cc(=O)n2[nH]1,inactive: -0.7%
20,COc1cc(CNCC2CCCCC2)ccc1OCC(O)CN1CCC(O)CC1 (centres undefined),9.1%
21,COc1cc(CN2CCc3[nH]nc(-c4ccccc4)c3C2)cc2c1OCO2,11.8%
22,COc1cccc(C(=O)N2CCN(Cc3cn[nH]c3-c3ccc(F)cc3F)CC2)c1,1.9%

row,SMILES,activity
1,CCN1CCN(CC(O)COc2cccc(CNCCCn3cccn3)c2)CC1 (centres undefined),0.3%
2,Cc1occc1C(=O)NC1CC(=O)N(Cc2cccc3ccccc23)C1 (centres undefined),1.4%
3,COC(=O)C1CCN(C(=O)c2cn(Cc3ccc(F)cc3Cl)nn2)CC1,4.3%
4,COc1ccc(C(N)=O)cc1S(=O)(=O)NC(C)C,inactive: -19.1%
5,Cc1occc1C(=O)Nc1nc2c(s1)CCCCC2,active: 79.9%
6,Cc1nn(-c2ccccc2)c(C)c1CC(=O)NC1CCCN(C2CCN(C)CC2)C1 (centres undefined),inactive: -0.8%
7,c1ccc2oc(-c3cnnc(N4CCC(N5CCSCC5)CC4)n3)cc2c1,13.5%
8,Cc1cc(=O)n2[nH]c(SCc3ccccc3)nc2n1,4.3%
9,COc1cccc(CC2CN(C(=O)CSC)CCO2)c1 (centres undefined),1.5%
10,COc1cc(CNCC2(O)CCCCC2)ccc1OCC(O)CN(C)C(C)C (centres undefined),2.5%
11,O=C(NCC1CCCN(Cc2nc3ccccc3s2)C1)c1ccc2c(c1)OCO2 (centres undefined),4.1%
12,COc1ccc(CNCCc2cnc[nH]2)c(OCC(O)CN2CCCC2)c1 (centres undefined),7%
13,CCOC(=O)C1CCCN(Cc2cn(C)nc2-c2ccccc2F)C1 (centres undefined),6.6%
14,CCN(CCn1cccn1)Cc1cccc(OCC(O)CN2CCOCC2)c1 (centres undefined),6.3%
15,COc1cc(CN(C)C)ccc1OCC(O)CN(C)C(C)C (centres undefined),6.9%
16,Nc1ncnc(N(c2ccccc2)c2ccccc2)n1,inactive: -1.7%
17,O=C(CN1CCCCCC1)Nc1ccc(Cl)cc1,inactive: -10%
18,CCn1c(C2CCCO2)nc2ccccc21 (centres undefined),inactive: -18.1%
19,COc1ccc(Nc2nc(N)nc(C(F)(F)F)n2)cc1,inactive: -11.1%
20,COc1ccc(C2CC(=O)c3cnc(NC4CC4)nc3C2)cc1 (centres undefined),3.9%
21,COc1ccc(OCc2cc(C(=O)N3CCSCC3)no2)c2ccccc12,4.2%
22,COc1ccc(OC)c(CN2CCc3onc(-c4ccccc4F)c3C2)c1,6%

row,SMILES,activity
1,O=C(Nc1ccc2c(c1)OCCO2)c1ccc(=O)[nH]n1,inactive: -1.3%
2,COc1ccccc1CCN1CCCC(CN(C)C(=O)CCCn2cncn2)C1 (centres undefined),inactive: -4.1%
3,O=C(c1ccc2c(c1)no[n+]2[O-])N1CCCC(Nc2ccc3c(c2)OCCO3)C1 (centres undefined),inactive: -1.5%
4,Cn1ccnc1C1CCCCN1Cc1c(C(=O)N2CCCCCCC2)nc2sccn12 (centres undefined),10.8%
5,CC(C)Oc1cccc(C(=O)Nc2ccc3[nH]c(=O)[nH]c3c2)c1,5.2%
6,O=C(Nc1ccccc1N1CCN(C(=O)c2ccc(Cl)cc2)CC1)c1ccco1,0.8%
7,Cc1ccc(CCNCC2(c3cccc(F)c3)CCOC2)o1 (centres undefined),4%
8,CCC(Cn1ccnc1)NC(=O)c1cc(-c2cn[nH]c2)nc2cc(F)ccc12 (centres undefined),4%
9,O=C(C1COc2ccccc2C1)N1CCc2onc(-c3ccccc3F)c2C1 (centres undefined),17.7%
10,O=C(c1cn2ccsc2n1)N1CCCC(Nc2ccc3c(c2)OCCO3)C1 (centres undefined),3.5%
11,Oc1ccc(Cl)cc1CNC1CCCN(c2ncccn2)C1 (centres undefined),0.8%
12,CCOc1ccc(CNCCCNCCO)cc1,8.8%
13,O=C(c1cccc(-n2cnnc2)c1)N1CCOC(Cc2ccccc2)C1 (centres undefined),inactive: -1.6%
14,CN1CCC(N(C)C(=O)CCC2CCCN(Cc3cc4ccccc4s3)C2)CC1 (centres undefined),6.1%
15,O=C(CCn1nc(-c2ccccc2)c2ccccc2c1=O)NN1CCOCC1,4.4%
16,COc1cccc(OC)c1-c1cnnc(NC(C)c2cnn(C)c2C)n1 (centres undefined),1.2%
17,O=C(C(NS(=O)(=O)c1ccccc1)c1ccccc1)N1CCCCC1 (centres undefined),inactive: -5.7%
18,C#CCN(CC=C)Cc1cnc(S(C)(=O)=O)n1CCCc1ccccc1,inactive: -3.7%
19,CCOC(=O)C1CCCCN1Cc1cn[nH]c1-c1ccc(OC)cc1F (centres undefined),inactive: -4%
20,COc1ccc(-c2nc(CN(C)Cc3nonc3C)c(C)o2)c(OC)c1C,5.5%
21,CC(C)Oc1cccc(C(=O)Nc2ncn[nH]2)c1,inactive: -3.3%
22,CCCc1nnc(CSc2nc3ccccc3o2)o1,8.2%

row,SMILES,activity
1,O=C(CCN1CCCO1)N1CCOC(CCCc2ccccc2)C1 (centres undefined),2.5%
2,O=C(O)c1ccc(-c2nnc(-c3ccccc3Cl)o2)cc1,active: 78.3%
3,O=C(c1ccco1)N1CCN(c2c(F)c(F)c(Cl)c(F)c2F)CC1,inactive: -1.4%
4,CC(C(=O)NCc1cccnc1N1CCc2ccccc2C1)n1cncn1 (centres undefined),inactive: -0.3%
5,O=C(CCC1CCN(C(=O)CCc2cnccn2)CC1)NC1CCN(Cc2ccccc2)C1 (centres undefined),7.2%
6,Cc1cc2c(SCC(=O)NC3CCCC3)ncnc2s1,inactive: -1.1%
7,O=C1CCCN1CCNCc1ccccc1OCC(O)CN1CCCCC1 (centres undefined),8.4%
8,CN(CCc1ccccn1)c1ncccc1CNC(=O)C1CCCC1,1.9%
9,O=C(Cn1nnc(-c2cccs2)n1)NCCC1=CCCCC1,inactive: -7.9%
10,CN(C)CCNC(=O)c1ccc(OC2CCN(Cc3nccn3C)CC2)c(Cl)c1,inactive: -6.7%
11,CCC(C)OC1=CC=CC(OCCN2CCN(C)CC2)=[C+]1 (centres undefined),7.7%
12,Cc1cnc(C(=O)N2CCCC(CCC(=O)NCc3ccc(F)c(F)c3)C2)cn1 (centres undefined),6.1%
13,O=C(CCC1CCN(C(=O)c2ccc(Cl)s2)CC1)NCc1cccnc1,inactive: -0.6%
14,COc1cc(CN2CCN(Cc3ccc(F)c(F)c3)C(CCO)C2)ccc1O (centres undefined),5.6%
15,O=C(C(=O)N1CCOC(CC2CCCCC2)C1)c1ccccc1 (centres undefined),5.9%
16,CC(C)Oc1cccc(NC(=O)Nc2ccccc2)c1,6.3%
17,CC(C)CCCC1CN(c2ccnc(CO)c2)CCO1 (centres undefined),inactive: -2.6%
18,C=CCn1cc(CNC2CCCN(Cc3ccccc3F)C2)c(C)n1 (centres undefined),6%
19,COc1cc(CNCCc2cnccn2)ccc1OCC(O)CN1CCSCC1 (centres undefined),1.9%
20,Cc1ccc(C2(c3noc(CN4CCN(C5CCS(=O)(=O)C5)CC4)n3)CCCC2)cc1 (centres undefined),2.6%
21,CCc1ocnc1C(=O)N1CCC2(CCCN(Cc3ccc(F)cc3)C2=O)C1 (centres undefined),1.8%
22,O=C(NCC(c1ccncc1)N1CCOCC1)c1cn(Cc2ccc(F)cc2Cl)nn1 (centres undefined),6.3%

row,SMILES,activity
1,CCOC(=O)N1CCN(S(=O)(=O)c2ccc(NC(=O)N3CCCC3)cc2)CC1,5.9%
2,O=C(Cn1ncc(N2CCc3ccccc3C2)cc1=O)OCc1ccccc1,6.1%
3,Cc1nc(CC(=O)N2CCc3onc(-c4ccc(Cl)cc4)c3C2)cs1,5%
4,C=CCc1ccc(OCCn2ccnc2)c(OC)c1,inactive: -1.4%
5,Fc1cccc(C2(CNc3ccnn3Cc3cccnc3)CCOC2)c1 (centres undefined),4.3%
6,COc1ccc(-c2[nH]ncc2CNC(Cn2ccnc2)C(C)(C)C)c(F)c1 (centres undefined),0.9%
7,O=C(CCCn1nnnc1CN1CCOCC1)NCCCN1CCc2ccccc21,5.8%
8,Cc1ccc(C(=O)N2CCC3(CCCN(Cc4ccc(F)c(F)c4)C3=O)C2)cn1 (centres undefined),3.9%
9,O=C(CCC1CCN(C(=O)C2=CCCCC2)CC1)NCc1cccnc1,1%
10,CCc1cc(CNCc2ccc(OCC(O)CN3CCOCC3)c(OC)c2)on1 (centres undefined),2.5%
11,Cc1cccc(N2CCC(NC(=O)C3CCC(=O)N(CCCN4CCOCC4)C3)CC2)c1 (centres undefined),13.1%
12,O=C(NCC(c1ccc(F)cc1)N1CCCC1)c1cn(CCN2CCOCC2)nn1 (centres undefined),2.4%
13,C#CCSc1nc2c(c(=O)[nH]1)C(c1cccc(F)c1)CC(=O)N2 (centres undefined),inactive: -13.9%
14,Cc1ccc(-n2cc(CN3CCCC(C(N)=O)C3)c(-c3ccc(F)cc3)n2)cc1 (centres undefined),10.7%
15,CCSCCn1ncc(N2CCNCC2)cc1=O,1.4%
16,C=CCC(O)(CC=C)CNC(=O)C1CCC(=O)N(CCc2ccc(OC)cc2)C1 (centres undefined),3.6%
17,CC1CC(=O)c2cn3c(nc2C1)nc1ccccc13 (centres undefined),inactive: -2.3%
18,O=C1CN(C(=O)c2cc3ccccc3o2)c2ccccc2N1,inactive: -2.8%
19,CN(Cc1nccs1)C(=O)CC1C(=O)NCCN1Cc1cccc(Oc2ccccc2)c1 (centres undefined),inactive: -0.7%
20,CCN(CC)C(=O)N1CCN(c2cccc(C)c2C)CC1,inactive: -2.4%
21,CCN(CC1CCCO1)C(=O)C1CCN(C2CCN(Cc3ccccc3C)CC2)CC1 (centres undefined),9.1%

# 6 entries from above, sorted by length of the SMILES, ascending:
row,SMILES,activity
17,CC1CC(=O)c2cn3c(nc2C1)nc1ccccc13 (centres undefined),inactive: -2.3%
20,CCN(CC)C(=O)N1CCN(c2cccc(C)c2C)CC1,inactive: -2.4%
9,O=C(CCC1CCN(C(=O)C2=CCCCC2)CC1)NCc1cccnc1,1%
12,O=C(NCC(c1ccc(F)cc1)N1CCCC1)c1cn(CCN2CCOCC2)nn1 (centres undefined),2.4%
21,CCN(CC1CCCO1)C(=O)C1CCN(C2CCN(Cc3ccccc3C)CC2)CC1 (centres undefined),9.1%
16,C=CCC(O)(CC=C)CNC(=O)C1CCC(=O)N(CCc2ccc(OC)cc2)C1 (centres undefined),3.6%

# Pulled one by one from the list above, 2 records:
row,SMILES,activity
13,C#CCSc1nc2c(c(=O)[nH]1)C(c1cccc(F)c1)CC(=O)N2 (centres undefined),inactive: -13.9%
14,Cc1ccc(-n2cc(CN3CCCC(C(N)=O)C3)c(-c3ccc(F)cc3)n2)cc1 (centres undefined),10.7%
